Measured values: the supplement of paper PMC6078165
Values are relative to the signal before dosing, not to a vehicle control; the signal also falls without drug.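 Fibroblast labels denote human fibroblasts, mainly primary ones from uterus (C12385, HUF), lung (H6013), bone (Hs27A), adrenal (HADF) and skin (WS1), plus mammary HMF and breast cancer-associated Hs343T. Cancer cells are basal-like or mesenchymal-like triple-negative breast cancer lines. A hit is a response shift exceeding 3x replicate standard deviation. The tissue of the other fibroblasts is not given here.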

Tested on: MDAMB436
Assay: relative JC-1 red fluorescence (viability) vs pre-drug, coculture with fibroblast (fraction); higher = more viable cancer cells
Method: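 JC-1 labelled TNBC cells cocultured 1:1 (1,500 cells each) with CellTrace Violet stained primary or stromal fibroblasts in 384-well plates in FluoroBrite medium, treated with one of 42 anticancer drugs at 0.1, 1, 10 or 100 uM. JC-1 red fluorescence (mitochondrial integrity in cancer cells only) was read by plate reader every 8 h for 72 h. Values are normalised to each well's pre-drug value. The stock of one drug was tenfold lower, so its dose labels may be too high.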

CC/C(=C(\c1ccccc1)c1ccc(OCCN(C)C)cc1)c1ccccc1 [Tamoxifen]
relative JC-1 red fluorescence
Details | 8 h | 16 h | 24 h | 32 h | 40 h | 48 h | 56 h | 64 h | 72 h
0.1 µM, coculture fibroblast: C12385 | 0.8223 | 0.664 | 0.6697 | 0.592 | 0.554 | 0.531 | 0.523 | 0.51 | 0.511
0.1 µM, coculture fibroblast: H6013 | 0.863 | 0.75 | 0.747 | 0.73 | 0.7096 | 0.7303 | 0.6899 | 0.6714 | 0.6306
0.1 µM, coculture fibroblast: H6019 | 0.719 | 0.624 | 0.607 | 0.534 | 0.5 | 0.478 | 0.441 | 0.41 | 0.38
0.1 µM, coculture fibroblast: H6076 | 0.764 | 0.686 | 0.661 | 0.615 | 0.594 | 0.5674 | 0.568 | 0.555 | 0.541
0.1 µM, coculture fibroblast: H6231 | 0.743 | 0.649 | 0.6349 | 0.564 | 0.5451 | 0.514 | 0.499 | 0.47 | 0.442
0.1 µM, coculture fibroblast: HADF | 0.8112 | 0.713 | 0.693 | 0.6617 | 0.634 | 0.639 | 0.592 | 0.581 | 0.54
0.1 µM, coculture fibroblast: HCFa | 0.873 | 0.809 | 0.793 | 0.785 | 0.769 | 0.793 | 0.735 | 0.717 | 0.657
0.1 µM, coculture fibroblast: HCPF | 0.801 | 0.747 | 0.752 | 0.709 | 0.708 | 0.675 | 0.662 | 0.638 | 0.622
0.1 µM, coculture fibroblast: HHSteC | 0.83 | 0.7518 | 0.719 | 0.688 | 0.666 | 0.682 | 0.618 | 0.592 | 0.528
0.1 µM, coculture fibroblast: HMF | 0.786 | 0.662 | 0.609 | 0.56 | 0.538 | 0.5 | 0.495 | 0.475 | 0.465
0.1 µM, coculture fibroblast: HPFa | 0.867 | 0.795 | 0.73 | 0.676 | 0.644 | 0.637 | 0.555 | 0.519 | 0.442
0.1 µM, coculture fibroblast: HUF | 0.857 | 0.748 | 0.745 | 0.661 | 0.615 | 0.589 | 0.571 | 0.564 | 0.565
0.1 µM, coculture fibroblast: Hs5 | 0.794 | 0.697 | 0.681 | 0.633 | 0.6188 | 0.5812 | 0.586 | 0.5526 | 0.542
0.1 µM, coculture fibroblast: Hs27A | 0.8082 | 0.741 | 0.712 | 0.697 | 0.667 | 0.713 | 0.619 | 0.598 | 0.525
0.1 µM, coculture fibroblast: Hs343T | 0.7848 | 0.683 | 0.63 | 0.577 | 0.542 | 0.5058 | 0.487 | 0.4704 | 0.4561
0.1 µM, coculture fibroblast: WS1 | 0.789 | 0.6631 | 0.633 | 0.549 | 0.5037 | 0.482 | 0.4569 | 0.428 | 0.4196
1 µM, coculture fibroblast: C12385 | 0.8232 | 0.7024 | 0.6982 | 0.622 | 0.5656 | 0.538 | 0.517 | 0.4985 | 0.485
1 µM, coculture fibroblast: H6013 | 0.92 | 0.852 | 0.858 | 0.862 | 0.852 | 0.871 | 0.839 | 0.82 | 0.761
1 µM, coculture fibroblast: H6019 | 0.7714 | 0.7092 | 0.705 | 0.633 | 0.592 | 0.5709 | 0.5301 | 0.5002 | 0.4671
1 µM, coculture fibroblast: H6076 | 0.791 | 0.755 | 0.764 | 0.716 | 0.684 | 0.651 | 0.658 | 0.642 | 0.629
1 µM, coculture fibroblast: H6231 | 0.814 | 0.741 | 0.76 | 0.6879 | 0.65237 | 0.6232 | 0.6072 | 0.582 | 0.54505
1 µM, coculture fibroblast: HADF | 0.848 | 0.74 | 0.712 | 0.675 | 0.652 | 0.658 | 0.594 | 0.575 | 0.526
1 µM, coculture fibroblast: HCFa | 0.838 | 0.744 | 0.729 | 0.68 | 0.655 | 0.653 | 0.576 | 0.556 | 0.493
1 µM, coculture fibroblast: HCPF | 0.828 | 0.739 | 0.7701 | 0.7149 | 0.68 | 0.638 | 0.616 | 0.588 | 0.547
1 µM, coculture fibroblast: HHSteC | 0.911 | 0.857 | 0.838 | 0.799 | 0.777 | 0.772 | 0.712 | 0.677 | 0.613
1 µM, coculture fibroblast: HMF | 0.812 | 0.7377 | 0.759 | 0.712 | 0.688 | 0.651 | 0.641 | 0.618 | 0.599
1 µM, coculture fibroblast: HPFa | 0.909 | 0.831 | 0.801 | 0.754 | 0.717 | 0.714 | 0.623 | 0.585 | 0.503
1 µM, coculture fibroblast: HUF | 0.857 | 0.768 | 0.739 | 0.655 | 0.595 | 0.567 | 0.535 | 0.51 | 0.501
1 µM, coculture fibroblast: Hs5 | 0.7968 | 0.7755 | 0.7675 | 0.706 | 0.686 | 0.633 | 0.627 | 0.594 | 0.58
1 µM, coculture fibroblast: Hs27A | 0.887 | 0.841 | 0.802 | 0.754 | 0.729 | 0.768 | 0.663 | 0.643 | 0.561
1 µM, coculture fibroblast: Hs343T | 0.825 | 0.753 | 0.746 | 0.7 | 0.667 | 0.628 | 0.609 | 0.593 | 0.569
1 µM, coculture fibroblast: WS1 | 0.8026 | 0.731 | 0.74 | 0.671 | 0.626 | 0.602 | 0.578 | 0.551 | 0.541
10 µM, coculture fibroblast: C12385 | 0.873 | 0.871 | 0.895 | 0.866 | 0.871 | 0.869 | 0.843 | 0.829 | 0.809
10 µM, coculture fibroblast: H6013 | 0.844 | 0.881 | 0.776 | 0.773 | 0.746 | 0.757 | 0.723 | 0.657 | 0.73
10 µM, coculture fibroblast: H6019 | 0.833 | 0.877 | 0.848 | 0.884 | 0.849 | 0.872 | 0.972 | 0.95 | 0.919
10 µM, coculture fibroblast: H6076 | 0.906 | 0.923 | 0.893 | 0.956 | 0.912 | 0.861 | 0.822 | 0.788 | 0.756
10 µM, coculture fibroblast: H6231 | 0.857 | 0.779 | 0.713 | 0.617 | 0.559 | 0.506 | 0.473 | 0.423 | 0.396
10 µM, coculture fibroblast: HADF | 0.918 | 0.819 | 0.873 | 0.857 | 0.821 | 0.845 | 0.824 | 0.805 | 0.828
10 µM, coculture fibroblast: HCFa | 0.91 | 0.847 | 0.911 | 0.852 | 0.8967 | 0.822 | 0.874 | 0.83 | 0.816
10 µM, coculture fibroblast: HCPF | 0.9031 | 0.865 | 0.849 | 0.798 | 0.738 | 0.696 | 0.654 | 0.607 | 0.588
10 µM, coculture fibroblast: HHSteC | 0.857 | 0.828 | 0.799 | 0.769 | 0.75 | 0.749 | 0.679 | 0.649 | 0.588
10 µM, coculture fibroblast: HMF | 0.856 | 0.818 | 0.84 | 0.83 | 0.823 | 0.789 | 0.768 | 0.719 | 0.702
10 µM, coculture fibroblast: HPFa | 0.865 | 0.811 | 0.768 | 0.734 | 0.715 | 0.703 | 0.643 | 0.608 | 0.54
10 µM, coculture fibroblast: HUF | 0.873 | 0.826 | 0.851 | 0.818 | 0.785 | 0.747 | 0.711 | 0.691 | 0.668
10 µM, coculture fibroblast: Hs5 | 0.876 | 0.823 | 0.793 | 0.74 | 0.733 | 0.69 | 0.691 | 0.663 | 0.656
10 µM, coculture fibroblast: Hs27A | 0.876 | 0.868 | 0.871 | 0.853 | 0.79 | 0.781 | 0.693 | 0.649 | 0.577
10 µM, coculture fibroblast: Hs343T | 0.7765 | 0.853 | 0.824 | 0.882 | 0.82 | 0.843 | 0.827 | 0.7292 | 0.775
10 µM, coculture fibroblast: WS1 | 0.84 | 0.88 | 0.875 | 0.842 | 0.793 | 0.796 | 0.75 | 0.8826 | 0.8703
